Results on 1 molecule are retold here after patent publication US20020001840A1.

These are yes or no findings as the source states them, for the method shown. Binding can be weak; no strength is given. Tags and fused reporters may be left off the sequences shown.

For the experiment, the target named is purified αvβ3 integrin. The experiment is described as follows: adhesion of transfected HeLa cells to wells coated with purified αvβ3 integrin.

B1: full-length ADAM 23 HA-tagged at the COOH-terminus, on transfected HeLa cells (protein, not shown: small tags and cut ends)
chain: AVNPSRGIFEEMKYLELMIVNDHKTYKKHRSSHAHTNNFAKSVVNLVDSIYKEQLNTRVVLVAVETWTEKDQIDITTNPVQMLHEFSKYRQRIKQHADAVHLISRVTFHYKRSSLSYFGGVCSRTRGVGVNEYGLPMAVAQVLSQSLAQNLGIQWEPSSRKPKCDCTESWGGCIMEETGVSHSRKFSKCSILEYRDFLQRGGGACLFNRPTKLFEPTECGNGYVEAGEECDCGFHVECYGLCCKKCSLSNGAHCSDGPCCNNTSCLFQPRGYECRDAVNECDITEYCTGDSGQCPPNLHKQDGYACNQNQGRCYNGECKTRDNQCQYIWGTKAAGSDKFCYEKLNTEGTEKGNCGKDGDRWIQCSKHDVFCGFLLCTNLTRAPRIGQLQGEIIPTSFYHQGRVIDCSGAHVVLDDDTDVGYVEDGTPCGPSMMCLDRKCLQIQALNMSSCPLDSKGKVCSGHGVCSNEATCICDFTWAGTDCSIRDPVRNLHPPKDEGPKGPSATNLIIGSIAGAILVAAIVLGGTGWGFKNVKKRRFDPTQQGPI
As for B1, the binding result is “binds”.
